Experimental data published in article PMC8546353.
These are yes or no findings as the source states them, for the method shown. Binding seen in cells or lysates may run through a third protein. Binding calls can cover weak binding; strength is not graded here.

Target: T1, SecY translocase (Synechocystis sp. PCC 6803) (UniProt P77964)
T1 sequence: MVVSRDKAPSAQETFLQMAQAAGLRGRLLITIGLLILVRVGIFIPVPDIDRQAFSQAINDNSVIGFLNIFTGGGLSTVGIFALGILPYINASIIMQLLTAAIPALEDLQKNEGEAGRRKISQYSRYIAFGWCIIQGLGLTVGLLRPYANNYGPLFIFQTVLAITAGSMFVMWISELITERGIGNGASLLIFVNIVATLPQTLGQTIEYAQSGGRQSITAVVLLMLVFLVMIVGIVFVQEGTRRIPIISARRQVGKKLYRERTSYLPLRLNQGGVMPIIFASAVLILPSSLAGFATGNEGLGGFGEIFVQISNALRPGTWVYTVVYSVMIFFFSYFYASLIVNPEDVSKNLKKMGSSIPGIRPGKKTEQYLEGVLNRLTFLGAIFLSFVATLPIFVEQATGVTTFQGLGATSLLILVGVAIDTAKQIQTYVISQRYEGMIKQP
Assay: co-IP; anti-SecY antibody incubated overnight with membrane proteins isolated from WT, ΔpilD, rev2 and rev3 strains grown with glucose (Glc+), then immobilised on Protein A-Sepharose, washed, eluted in 1% SDS/dithiothreitol; blot probed with anti-SecY, anti-PilA1 and anti-SecE antibodies

binding: binds
Substance: non-glycosylated PilA1 prepilin (Synechocystis sp. PCC 6803)
